Values of other authors, collected in US11846224B2, “Urea removing apparatus” (ISUZU MOTORS LIMITED, priority 2022, dated 2023).

Conditions: in water at 80° C.

SMILES: NC(N)=O [urea]
- aqueous solubility of urea: 400 g/100 ml
